{"source": "paper PMC10505911", "key": {"2HA-TurboID-I382R-∆C": {"biological_target": "2HA-TurboID-I382R-∆C (UniProt Q9BY78)", "assay": "proximity labelling; 2HA-TurboID-RNF26 variants expressed in HeLa (quantified in U2OS and HeLa); 30 min biotin before lysis; neutravidin precipitates blotted for vimentin and HA"}, "2HA-TurboID-RNF26": {"biological_target": "2HA-TurboID-RNF26 (UniProt Q9BY78)", "assay": "proximity labelling; 2HA-TurboID-RNF26 variants expressed in HeLa (quantified in U2OS and HeLa); 30 min biotin before lysis; neutravidin precipitates blotted for vimentin and HA"}, "2HA-TurboID-RNF26 I382R": {"biological_target": "2HA-TurboID-RNF26 I382R (UniProt Q9BY78)", "assay": "proximity labelling; 2HA-TurboID-RNF26 variants expressed in HeLa (quantified in U2OS and HeLa); 30 min biotin before lysis; neutravidin precipitates blotted for vimentin and HA"}, "GST-RNF26 (304–433)": {"biological_target": "GST-RNF26 (304–433) (UniProt Q9BY78)", "assay": "affinity purification with mass spectrometry; recombinant GST-RNF26 (304–433) as bait, co-precipitates from MelJuSo cell lysate; bands cut from a silver-stained gel, LC-MS; only the target purified"}}, "note": "Results are given in words; binding and its absence hold for the method and conditions named. In cells and extracts the contact can be indirect. A yes stands for co-enrichment or nearness to the bait. Other partners may have been found. For some of these results: A no says only that the protein was not detected with the bait.", "data": [{"substance": "vimentin (endogenous, HeLa and U2OS cells) (from UniProt P08670 1-466)", "values": [{"measurement": "binding", "setting": "2HA-TurboID-I382R-∆C", "value": "no binding"}, {"measurement": "binding", "setting": "2HA-TurboID-RNF26", "value": "binds weakly"}, {"measurement": "binding", "setting": "2HA-TurboID-RNF26 I382R", "value": "binds"}]}, {"substance": "vimentin (endogenous, MelJuSo lysate) (from UniProt P08670 1-466)", "values": [{"measurement": "binding", "setting": "GST-RNF26 (304–433)", "value": "binds"}]}]}
